# Patent publication US20080207532A1, “Use of Nordihydroguaiaretic Acid Derivatives in the Treatment of Drug Resistant Cancer, Viral and Microbial Infection” (Johns Hopkins University, priority 2004, published 2008)
# System: NCI/ADR-RES cells
# Experiment: SRB cytotoxicity assay with median-effect / combination index analysis
# Type: cell-based, human
# Conditions: three days
row,Structure (SMILES),"m, shape of the dose-effect curve"
1,"COc1ccc(C[C@@H](C)[C@@H](C)Cc2ccc(OC)c(OC)c2)cc1OC [M4N, tetra-o-methyl nordihydroguaiaretic acid]",0.91 and 0.52
2,"COc1cccc2c1C(=O)c1c(O)c3c(c(O)c1C2=O)C[C@@](O)(C(=O)CO)C[C@@H]3O[C@H]1C[C@H](N)[C@H](O)[C@H](C)O1 [Dox, doxorubicin]",0.49
3,CC(=O)O[C@H]1C(=O)[C@@]2(C)[C@H]([C@H](OC(=O)c3ccccc3)[C@]3(O)C[C@H](OC(=O)[C@H](O)[C@@H](NC(=O)c4ccccc4)c4ccccc4)C(C)=C1C3(C)C)[C@]1(OC(C)=O)CO[C@@H]1C[C@@H]2O [paclitaxel],0.59

# “And” between values parts separate entries of the source, which are not always exact repeats. Equal values may be shown once.
